Laboratory results published in patent publication US20190359681A1, “NOVEL MINOR HISTOCOMPATIBILITY ANTIGENS AND USES THEREOF” (UNIVERSITÉ DE MONTRÉAL, priority 2015, published 2019).

Legend:
[1] = system: primary acute myeloid leukemia (AML) samples; test: Expression of MiHA-coding genes in AML samples (TCGA RNA-Seq, RPKM); parameters: species or system human; settings: mean MiHA gene expression in primary AML samples obtained from TCGA
From the text: (§1) Determination of the tissue distribution of gene expression. Allogeneic T cells can react against a multitude of host MiHAs expressed elsewhere than in hematopoietic/lymphoid organs and induce GVHD. Therefore, to avoid GVHD MiHA expression should not be ubiquitous. Unfortunately, current technical limitations prevent from experimentally assessing MiHA expression in these tissues by mass spectrometry. As an alternative, it was previously shown that MAPs preferentially derive from abundant transcripts (Granados et al. Blood 2012). Thus, the level of expression of transcripts coding for MiHAs could be used as an indicator of MiHAs expression. […] Genes were then classified as “ubiquitous” if expressed in 27 tissues with a “Fragments Per Kilobase of exons per Million mapped reads (FPKM)” >10 or as “not ubiquitous” if not expressed with a FPKM>10 in all 27 tissues. […] Reads Per Kilobase per Million mapped reads (RPKM) values of MiHA-coding genes in AML samples were obtained from the TCGA Data Portal version 3.1.6. […] Mean values were calculated using the 128 AMLs, expect for the Y chromosome-encoded UTY gene, for which only 65 male samples were considered. […]

MiHA-coding transcripts = test: Tissue distribution of MiHA gene expression (27 tissues, FPKM; bone marrow over skin ratio); parameters: species or system human; settings: relative BM/skin expression of the MiHA-coding transcripts
From the text: as §1

With MCPH1-1^R/I (EEINLQRNI) the “AMLs (RPKM)” value [1] was 6.17 RPKM and the BM/skin ratio (MiHA-coding transcripts) was 2.09.

For some assays here: The expression values are mRNA levels of the gene; the protein chain is shown to identify it.
